Source: the supplement of paper PMC10849652
This is one part of the list.

Chains of the proteins cited; added tags and fusions are not shown. Lines headed by an entry give the natural chain unless they say otherwise; changes in a name come on top.
UniProt Q96CG3: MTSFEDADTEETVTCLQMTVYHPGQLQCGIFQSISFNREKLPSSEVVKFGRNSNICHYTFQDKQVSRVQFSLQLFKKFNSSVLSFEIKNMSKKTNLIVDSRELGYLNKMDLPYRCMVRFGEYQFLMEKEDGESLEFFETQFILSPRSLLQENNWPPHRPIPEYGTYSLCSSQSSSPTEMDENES
UniProt Q8TC07: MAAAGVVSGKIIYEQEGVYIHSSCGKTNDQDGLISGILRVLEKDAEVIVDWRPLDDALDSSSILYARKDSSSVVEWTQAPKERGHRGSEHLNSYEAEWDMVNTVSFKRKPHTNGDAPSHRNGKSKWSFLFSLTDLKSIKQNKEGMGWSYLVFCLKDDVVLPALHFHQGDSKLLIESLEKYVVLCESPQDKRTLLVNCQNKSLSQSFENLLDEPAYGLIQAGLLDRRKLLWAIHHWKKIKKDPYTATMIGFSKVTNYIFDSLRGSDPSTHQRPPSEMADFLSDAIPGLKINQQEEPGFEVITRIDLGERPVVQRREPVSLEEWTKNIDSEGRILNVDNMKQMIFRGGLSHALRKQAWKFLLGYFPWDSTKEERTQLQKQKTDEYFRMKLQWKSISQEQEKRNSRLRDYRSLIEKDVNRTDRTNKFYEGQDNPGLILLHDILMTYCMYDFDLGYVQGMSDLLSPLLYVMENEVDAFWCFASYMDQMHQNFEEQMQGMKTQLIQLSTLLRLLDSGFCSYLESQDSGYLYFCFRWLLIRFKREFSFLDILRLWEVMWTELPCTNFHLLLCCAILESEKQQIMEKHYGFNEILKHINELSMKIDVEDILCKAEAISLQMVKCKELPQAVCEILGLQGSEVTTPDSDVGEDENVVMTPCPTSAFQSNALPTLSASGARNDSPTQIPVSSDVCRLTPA
UniProt Q6NUS6: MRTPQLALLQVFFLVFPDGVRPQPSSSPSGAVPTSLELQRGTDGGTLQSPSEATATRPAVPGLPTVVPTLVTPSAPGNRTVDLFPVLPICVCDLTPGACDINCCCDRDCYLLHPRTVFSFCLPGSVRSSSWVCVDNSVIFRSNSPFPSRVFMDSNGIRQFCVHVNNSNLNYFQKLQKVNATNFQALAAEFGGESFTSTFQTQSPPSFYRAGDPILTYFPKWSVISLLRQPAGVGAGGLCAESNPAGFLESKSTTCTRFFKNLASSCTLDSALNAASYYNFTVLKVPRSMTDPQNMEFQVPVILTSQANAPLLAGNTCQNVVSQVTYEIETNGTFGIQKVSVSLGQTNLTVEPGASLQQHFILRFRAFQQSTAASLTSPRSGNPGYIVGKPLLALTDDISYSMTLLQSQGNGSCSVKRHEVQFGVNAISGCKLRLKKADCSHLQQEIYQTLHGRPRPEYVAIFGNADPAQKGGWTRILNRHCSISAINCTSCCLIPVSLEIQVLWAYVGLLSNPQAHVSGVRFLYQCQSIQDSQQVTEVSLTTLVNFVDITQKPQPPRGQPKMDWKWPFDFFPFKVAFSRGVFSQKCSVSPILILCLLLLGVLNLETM
UniProt Q5VWP2: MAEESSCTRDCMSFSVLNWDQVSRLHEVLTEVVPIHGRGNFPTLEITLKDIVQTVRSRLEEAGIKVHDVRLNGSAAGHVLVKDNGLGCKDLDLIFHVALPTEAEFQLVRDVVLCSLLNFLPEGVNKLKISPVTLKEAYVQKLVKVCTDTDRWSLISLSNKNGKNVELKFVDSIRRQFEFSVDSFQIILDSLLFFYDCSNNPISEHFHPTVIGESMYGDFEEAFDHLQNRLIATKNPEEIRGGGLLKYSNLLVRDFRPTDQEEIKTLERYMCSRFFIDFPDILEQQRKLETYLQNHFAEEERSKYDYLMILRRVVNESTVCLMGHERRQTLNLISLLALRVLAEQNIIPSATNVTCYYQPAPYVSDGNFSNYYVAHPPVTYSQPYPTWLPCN
UniProt Q969Z0: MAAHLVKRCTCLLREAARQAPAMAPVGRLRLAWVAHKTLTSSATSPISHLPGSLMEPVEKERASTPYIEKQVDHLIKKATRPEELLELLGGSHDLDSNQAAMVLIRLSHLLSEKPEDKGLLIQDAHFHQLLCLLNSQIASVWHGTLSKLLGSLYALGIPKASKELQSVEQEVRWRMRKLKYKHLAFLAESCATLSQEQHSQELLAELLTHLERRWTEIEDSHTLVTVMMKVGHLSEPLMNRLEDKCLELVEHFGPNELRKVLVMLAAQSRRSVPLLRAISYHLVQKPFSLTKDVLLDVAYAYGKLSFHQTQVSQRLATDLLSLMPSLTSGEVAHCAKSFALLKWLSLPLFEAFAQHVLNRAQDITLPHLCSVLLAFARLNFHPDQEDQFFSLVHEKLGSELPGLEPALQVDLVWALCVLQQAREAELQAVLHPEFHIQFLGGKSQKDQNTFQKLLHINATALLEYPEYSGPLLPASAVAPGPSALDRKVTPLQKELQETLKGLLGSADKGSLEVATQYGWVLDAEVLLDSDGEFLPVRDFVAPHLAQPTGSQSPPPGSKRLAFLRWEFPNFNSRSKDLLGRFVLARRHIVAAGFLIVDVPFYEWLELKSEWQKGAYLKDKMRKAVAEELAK
UniProt Q13428: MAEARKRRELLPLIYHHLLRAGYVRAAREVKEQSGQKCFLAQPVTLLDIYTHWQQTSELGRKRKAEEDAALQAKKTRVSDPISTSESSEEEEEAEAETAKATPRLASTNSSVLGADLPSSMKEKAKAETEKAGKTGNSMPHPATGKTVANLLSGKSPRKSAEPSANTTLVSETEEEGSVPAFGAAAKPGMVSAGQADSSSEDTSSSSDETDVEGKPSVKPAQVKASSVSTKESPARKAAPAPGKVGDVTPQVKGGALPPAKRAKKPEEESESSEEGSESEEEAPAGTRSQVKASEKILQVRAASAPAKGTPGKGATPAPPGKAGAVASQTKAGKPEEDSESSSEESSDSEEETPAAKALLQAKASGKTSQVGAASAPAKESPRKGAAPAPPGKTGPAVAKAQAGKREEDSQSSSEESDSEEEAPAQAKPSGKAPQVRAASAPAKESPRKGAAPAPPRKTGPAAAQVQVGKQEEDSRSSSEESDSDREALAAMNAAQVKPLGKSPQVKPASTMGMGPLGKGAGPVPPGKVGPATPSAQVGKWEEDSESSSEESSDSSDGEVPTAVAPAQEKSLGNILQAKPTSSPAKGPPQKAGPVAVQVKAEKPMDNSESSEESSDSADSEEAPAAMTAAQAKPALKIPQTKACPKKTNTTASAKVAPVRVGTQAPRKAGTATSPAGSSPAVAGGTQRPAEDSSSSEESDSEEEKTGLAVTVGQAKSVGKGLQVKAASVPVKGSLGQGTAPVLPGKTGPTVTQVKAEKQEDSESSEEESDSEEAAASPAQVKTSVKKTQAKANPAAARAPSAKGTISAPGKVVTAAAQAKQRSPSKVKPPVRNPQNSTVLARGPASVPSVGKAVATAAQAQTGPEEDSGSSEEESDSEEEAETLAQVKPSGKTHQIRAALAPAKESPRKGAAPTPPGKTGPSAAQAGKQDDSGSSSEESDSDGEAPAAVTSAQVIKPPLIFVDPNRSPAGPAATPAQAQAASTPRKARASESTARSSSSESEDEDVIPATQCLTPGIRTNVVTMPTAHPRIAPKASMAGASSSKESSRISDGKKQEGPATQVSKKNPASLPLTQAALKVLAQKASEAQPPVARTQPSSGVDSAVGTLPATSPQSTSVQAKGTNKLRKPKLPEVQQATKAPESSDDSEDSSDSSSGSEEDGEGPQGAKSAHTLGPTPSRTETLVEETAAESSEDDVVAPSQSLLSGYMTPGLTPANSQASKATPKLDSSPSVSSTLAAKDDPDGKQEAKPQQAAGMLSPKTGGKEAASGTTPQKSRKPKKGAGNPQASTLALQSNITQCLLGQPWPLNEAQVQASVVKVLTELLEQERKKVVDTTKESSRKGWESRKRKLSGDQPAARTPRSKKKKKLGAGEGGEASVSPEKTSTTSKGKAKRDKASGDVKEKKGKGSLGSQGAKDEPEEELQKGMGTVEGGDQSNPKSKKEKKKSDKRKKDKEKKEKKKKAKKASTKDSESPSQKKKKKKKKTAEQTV
UniProt Q15170: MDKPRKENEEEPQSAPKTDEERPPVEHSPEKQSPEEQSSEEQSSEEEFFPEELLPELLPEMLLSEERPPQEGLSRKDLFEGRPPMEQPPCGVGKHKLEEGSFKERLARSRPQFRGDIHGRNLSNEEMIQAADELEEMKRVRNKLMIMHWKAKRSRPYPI
UniProt P36897: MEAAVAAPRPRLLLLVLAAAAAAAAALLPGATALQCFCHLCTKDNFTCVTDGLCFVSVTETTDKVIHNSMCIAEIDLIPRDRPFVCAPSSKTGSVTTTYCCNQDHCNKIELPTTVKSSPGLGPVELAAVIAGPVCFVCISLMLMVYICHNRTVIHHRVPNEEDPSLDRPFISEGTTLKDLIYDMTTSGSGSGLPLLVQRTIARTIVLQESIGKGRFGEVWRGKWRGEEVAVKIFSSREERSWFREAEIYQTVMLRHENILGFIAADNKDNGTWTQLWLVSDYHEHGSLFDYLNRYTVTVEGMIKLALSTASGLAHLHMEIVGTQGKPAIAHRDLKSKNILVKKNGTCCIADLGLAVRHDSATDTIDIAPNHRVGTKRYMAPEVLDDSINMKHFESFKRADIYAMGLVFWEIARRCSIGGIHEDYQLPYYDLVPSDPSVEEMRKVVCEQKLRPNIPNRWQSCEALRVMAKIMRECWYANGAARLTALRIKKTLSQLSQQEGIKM
UniProt Q9P016: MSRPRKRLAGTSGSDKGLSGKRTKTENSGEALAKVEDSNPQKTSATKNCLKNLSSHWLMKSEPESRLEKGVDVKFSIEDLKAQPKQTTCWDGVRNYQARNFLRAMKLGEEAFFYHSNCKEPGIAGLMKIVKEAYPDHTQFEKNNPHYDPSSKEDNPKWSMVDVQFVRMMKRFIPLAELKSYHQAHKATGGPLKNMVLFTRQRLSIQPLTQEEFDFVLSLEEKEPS
UniProt Q9Y5L4: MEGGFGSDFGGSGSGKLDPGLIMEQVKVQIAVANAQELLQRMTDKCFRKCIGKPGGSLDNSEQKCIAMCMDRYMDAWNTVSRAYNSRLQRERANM
UniProt Q9H5Q4: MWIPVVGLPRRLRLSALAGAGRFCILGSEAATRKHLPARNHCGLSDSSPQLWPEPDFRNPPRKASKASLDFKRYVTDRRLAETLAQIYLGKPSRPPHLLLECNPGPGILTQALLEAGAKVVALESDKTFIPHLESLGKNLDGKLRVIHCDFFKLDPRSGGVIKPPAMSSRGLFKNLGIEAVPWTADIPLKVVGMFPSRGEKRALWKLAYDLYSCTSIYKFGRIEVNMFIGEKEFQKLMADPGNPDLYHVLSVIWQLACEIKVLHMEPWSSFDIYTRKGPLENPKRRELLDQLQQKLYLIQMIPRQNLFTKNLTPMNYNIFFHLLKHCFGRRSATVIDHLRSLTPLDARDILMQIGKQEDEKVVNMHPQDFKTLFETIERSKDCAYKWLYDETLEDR
UniProt Q14188: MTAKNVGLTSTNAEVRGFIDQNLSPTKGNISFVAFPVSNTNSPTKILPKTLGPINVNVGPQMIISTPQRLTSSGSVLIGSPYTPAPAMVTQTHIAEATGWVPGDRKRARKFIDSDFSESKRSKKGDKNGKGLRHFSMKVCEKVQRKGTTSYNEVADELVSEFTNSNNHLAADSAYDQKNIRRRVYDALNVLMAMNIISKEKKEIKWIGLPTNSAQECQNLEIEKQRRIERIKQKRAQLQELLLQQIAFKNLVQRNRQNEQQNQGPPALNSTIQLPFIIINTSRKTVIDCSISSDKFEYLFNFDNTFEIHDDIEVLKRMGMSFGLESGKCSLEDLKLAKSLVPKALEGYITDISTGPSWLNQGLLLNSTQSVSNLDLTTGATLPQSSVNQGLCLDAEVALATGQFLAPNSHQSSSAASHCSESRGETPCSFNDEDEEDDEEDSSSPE
UniProt Q9BVV7: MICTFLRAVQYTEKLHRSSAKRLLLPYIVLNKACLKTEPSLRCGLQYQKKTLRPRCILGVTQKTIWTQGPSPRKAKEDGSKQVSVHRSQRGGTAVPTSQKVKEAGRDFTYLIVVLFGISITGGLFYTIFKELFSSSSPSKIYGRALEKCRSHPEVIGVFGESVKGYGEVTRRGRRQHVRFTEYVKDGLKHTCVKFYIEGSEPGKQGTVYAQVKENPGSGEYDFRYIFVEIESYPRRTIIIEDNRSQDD
UniProt Q9NZ01: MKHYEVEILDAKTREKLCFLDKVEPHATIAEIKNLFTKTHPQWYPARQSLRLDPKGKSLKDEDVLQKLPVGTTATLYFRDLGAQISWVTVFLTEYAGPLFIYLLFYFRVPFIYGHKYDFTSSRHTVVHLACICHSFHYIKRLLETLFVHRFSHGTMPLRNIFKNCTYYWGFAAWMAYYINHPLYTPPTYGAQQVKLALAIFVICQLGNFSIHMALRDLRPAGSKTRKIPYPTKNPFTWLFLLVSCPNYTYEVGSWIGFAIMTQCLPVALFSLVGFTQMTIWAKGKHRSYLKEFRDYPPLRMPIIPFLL

What was measured:
Experiment in all cases: log2 fold change, soluble protein after heating vs DMSO (PISA); higher = thermal stabilisation; K562 cells, 10 uM, 30 min; active = over 0.2 and 3.5 SD of the protein, either way, in both replicates (recomputed)
[1] = compound: CS(=O)(=O)c1ccc(-c2cnc(N)c(C(=O)Nc3ccccc3)n2)cc1
Procedure, shortened: (§1)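 K562 cells at 2×10^6 cells/mL were treated for 30 min with 10 μM compound, and aliquots were heated for 3 min over 48°C-58°C before pooling. Extraction used PBS with 0.5% NP-40 at 4°C, and soluble protein was the supernatant after 21,000xg for 90 min, measured by TMTpro 16plex LC-MS/MS with channel sums equalised. Thermal stability values, relative to control samples and from duplicates, are log2 fold changes.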

crizotinib = compound: C[C@@H](Oc1cc(-c2cnn(C3CCNCC3)c2)cnc1N)c1c(Cl)ccc(F)c1Cl [crizotinib]
Procedure, shortened: as §1

[2] = compound: C[C@@H]1COCCN1C2=NC(=NC(=C2)C3(CC3)S(=O)(=O)C)C4=C5C=CNC5=CC=C4
Procedure, shortened: as §1

[3] = compound: C[C@H](C1=CC=C(C=C1)C(=O)NC2=C3C=CNC3=NC=C2)N
Procedure, shortened: as §1

gandotinib = compound: Cc1cc(Nc2cc(CN3CCOCC3)c3nc(C)c(Cc4ccc(Cl)cc4F)n3n2)n[nH]1 [gandotinib]
Procedure, shortened: as §1

doramapimod = compound: Cc1ccc(-n2nc(C(C)(C)C)cc2NC(=O)Nc2ccc(OCCN3CCOCC3)c3ccccc23)cc1 [doramapimod]
Procedure, shortened: as §1

[4] = compound: Cc1cccc(CC(=O)N2CCc3c2ccc(-c2cn(C)c4ncnc(N)c24)c3F)n1
Procedure, shortened: as §1

[5] = compound: Cn1cc(-c2ccc3c(c2)CCN3C(=O)Cc2cccc(C(F)(F)F)c2)c2c(N)ncnc21
Procedure, shortened: as §1

tipifarnib = compound: Cn1cncc1[C@@](N)(c1ccc(Cl)cc1)c1ccc2c(c1)c(-c1cccc(Cl)c1)cc(=O)n2C [tipifarnib]
Procedure, shortened: as §1

[6] = compound: Cc1cc(SCc2sc(-c3ccc(C(F)(F)F)cc3)nc2C)ccc1OCC(=O)O
Procedure, shortened: as §1

ispinesib = compound: Cc1ccc(C(=O)N(CCCN)[C@@H](c2nc3cc(Cl)ccc3c(=O)n2Cc2ccccc2)C(C)C)cc1 [ispinesib]
Procedure, shortened: as §1

bafetinib = compound: Cc1ccc(NC(=O)c2ccc(CN3CC[C@H](N(C)C)C3)c(C(F)(F)F)c2)cc1Nc1nccc(-c2cncnc2)n1 [bafetinib]
Procedure, shortened: as §1

nilotinib = compound: Cc1cn(-c2cc(NC(=O)c3ccc(C)c(Nc4nccc(-c5cccnc5)n4)c3)cc(C(F)(F)F)c2)cn1 [nilotinib]
Procedure, shortened: as §1

[7] = compound: Cc1nc(Nc2n[nH]c3c2CN(C(=O)N[C@H](CN(C)C)c2ccccc2)C3(C)C)c2sccc2n1
Procedure, shortened: as §1

dasatinib = compound: Cc1nc(Nc2ncc(C(=O)Nc3c(C)cccc3Cl)s2)cc(N2CCN(CCO)CC2)n1 [dasatinib]
Procedure, shortened: as §1

[8] = compound: Cc1ncc(-c2ccnc(Nc3ccc(S(C)(=O)=O)cc3)n2)n1C(C)C
Procedure, shortened: as §1

[9] = compound: Cn1cc(-c2ccc3nnc(C(F)(F)c4ccc5ncccc5c4)n3n2)cn1
Procedure, shortened: as §1

mubritinib = compound: FC(F)(F)c1ccc(/C=C/c2nc(COc3ccc(CCCCn4ccnn4)cc3)co2)cc1 [mubritinib]
Procedure, shortened: as §1

tozasertib = compound: Cc1cc(Nc2cc(N3CCN(C)CC3)nc(Sc3ccc(NC(=O)C4CC4)cc3)n2)n[nH]1 [tozasertib]
Procedure, shortened: as §1

Target	log2 fold change [1]	log2 fold change (crizotinib)	log2 fold change [2]	log2 fold change [3]	log2 fold change (gandotinib)	log2 fold change (doramapimod)	log2 fold change [4]	log2 fold change [5]	log2 fold change (tipifarnib)	log2 fold change [6]	log2 fold change (ispinesib)	log2 fold change (bafetinib)	log2 fold change (nilotinib)	log2 fold change [7]	log2 fold change (dasatinib)	log2 fold change [8]	log2 fold change [9]	log2 fold change (mubritinib)	log2 fold change (tozasertib)
TIFA (UniProt Q96CG3)	inactive: -0.005	inactive: 0.049	inactive: -0.064	inactive: -0.037	inactive: -0.016	inactive: 0.045	inactive: 0.009	inactive: 0.243	inactive: 0.015										
TBC1D15 isoform 3 (UniProt Q8TC07)	inactive: -0.012	inactive: -0.275	inactive: -0.032	inactive: 0.036	inactive: -0.191	inactive: 0.017	inactive: 0.059	inactive: -0.052	inactive: -0.134	inactive: 0.064	inactive: -0.154	inactive: -0.026	inactive: -0.116	inactive: -0.098	inactive: -0.133	inactive: -0.004	inactive: 0.011	inactive: 0.054	
TGFBRAP1 (UniProt Q8WUH2)	inactive: -0.081	inactive: -0.367	inactive: 0.051	inactive: 0.067	inactive: -0.142	inactive: 0	active: 0.482	inactive: -0.151	inactive: 0.032	inactive: 0.087	inactive: -0.221	inactive: -0.05	inactive: -0.122	inactive: -0.125	inactive: -0.153	inactive: 0.091	inactive: -0.16	inactive: 0.053	
TCTN3 (UniProt Q6NUS6)	inactive: 0.047	inactive: 0.143	inactive: 0.02			inactive: -0.114			inactive: 0.105			inactive: -0.022	inactive: 0.015	inactive: -0.045		inactive: -0.178			
TFR2 (UniProt Q9UP52)	inactive: 0.068	inactive: -0.182	inactive: -0.001	inactive: -0.016	inactive: 0.03	inactive: -0.019	inactive: -0.012	inactive: -0.019	inactive: 0.025	inactive: -0.038	inactive: -0.097	active: -0.226	inactive: 0.012	inactive: -0.074	inactive: 0.006	inactive: -0.026	inactive: 0.054	inactive: 0.041	
TENT5C (UniProt Q5VWP2)	inactive: 0.044	inactive: 0.043		inactive: 0.011	inactive: 0.142	inactive: 0.061	inactive: 0.009	inactive: -0.286	inactive: -0.02	inactive: 0.174	inactive: 0.055	inactive: -0.055	inactive: 0.002	inactive: 0.02	inactive: -0.122	inactive: 0.005	inactive: 0.028	inactive: 0.014	
TBRG4 (UniProt Q969Z0)	inactive: -0.041	active: -0.676	inactive: 0.137	inactive: -0.005	inactive: -0.364	inactive: -0.081	inactive: -0.035	inactive: 0.095	inactive: -0.317	inactive: 0.174	inactive: -0.254	inactive: -0.137	inactive: -0.027	inactive: -0.291	inactive: -0.513	inactive: 0.006	inactive: 0.003	inactive: -0.277	
TCOF1 isoform 6 (UniProt Q13428)	inactive: -0.07	inactive: 0.032		inactive: -0.025		inactive: -0.068		inactive: 0.07			inactive: -0.122	inactive: 0.137	inactive: -0.102	inactive: 0.14		inactive: -0.033	inactive: -0.061	inactive: -0.091	
TCEAL1 isoform 2 (UniProt Q15170)	inactive: -0.007	inactive: 0.034		inactive: -0.053	inactive: 0.045	inactive: -0.371	inactive: -0.049	inactive: -0.095	inactive: 0.147		inactive: 0.026						inactive: 0.039		inactive: -0.028
TGFBR1 isoform 2 (UniProt P36897)	active: 0.254	inactive: 0.133	inactive: -0.031	inactive: 0.024	inactive: 0.101	inactive: -0.005	inactive: -0.052	inactive: -0.046	inactive: 0.017	inactive: 0.014	inactive: -0.156	inactive: -0.009	inactive: -0.049	inactive: -0.018		inactive: 0.007	inactive: 0.001	inactive: -0.113	
THYN1 (UniProt Q9P016)	inactive: -0.015	inactive: 0.061	inactive: 0.001	inactive: 0.011	inactive: 0.021	inactive: -0.036	inactive: -0.028	inactive: -0.015	inactive: -0.036	inactive: 0.087	inactive: -0.002	inactive: 0.009	inactive: -0.021	inactive: 0.044	inactive: -0.097	inactive: -0.009	inactive: 0.013	inactive: 0.031	
TIMM13 (UniProt Q9Y5L4)	inactive: -0.047	inactive: 0.051	inactive: 0.151	inactive: -0.115	inactive: -0.002	inactive: 0.039	inactive: 0.156	inactive: 0.07	inactive: -0.111	inactive: 0.006	inactive: 0.12	inactive: 0.086	inactive: 0.018	inactive: -0.017	inactive: 0	inactive: 0.035	inactive: -0.003	inactive: 0.005	
TCOF1 isoform 4 (UniProt Q13428)	inactive: -0.008	inactive: -0.053	inactive: 0.021	inactive: -0.016	inactive: 0.042	inactive: 0.013	inactive: -0.012	inactive: -0.046	inactive: 0.022	inactive: -0.047	inactive: -0.01	inactive: -0.037	inactive: -0.022	inactive: 0.045	inactive: 0.048	inactive: -0.034	inactive: -0.014	inactive: 0.025	
TCOF1 isoform 3 (UniProt Q13428)	inactive: -0.103		inactive: 0.542		inactive: -0.166		inactive: -0.005				inactive: -0.185						inactive: -0.419		
TFB2M (UniProt Q9H5Q4)	inactive: -0.013	inactive: -0.06	inactive: 0.096	inactive: 0.025	inactive: -0.19	inactive: -0.024	inactive: 0.008	inactive: 0.012	inactive: -0.132	inactive: 0.033	inactive: -0.044	inactive: -0.046	inactive: -0.043	inactive: -0.024	inactive: -0.099	inactive: 0.009	inactive: -0.004	inactive: -0.039	
TFDP2 (UniProt Q14188)	inactive: -0.067		inactive: -0.054	inactive: 0.087				inactive: -0.214				inactive: -0.049						inactive: 0.06	inactive: -0.022
TIMM21 (UniProt Q9BVV7)	inactive: 0.02	inactive: -0.01	inactive: 0.042	inactive: -0.029	inactive: 0.04	inactive: 0.02	inactive: 0.058	inactive: 0.025	inactive: 0.055	inactive: 0.033	inactive: -0.229	inactive: -0.149	inactive: -0.011	inactive: -0.014	inactive: 0.011	inactive: -0.003	inactive: 0.074	inactive: -0.011	
TECR (UniProt Q9NZ01)	inactive: -0.002	inactive: -0.247	inactive: 0.054	inactive: 0.045	active: -0.344	inactive: -0.095	inactive: 0.057	inactive: -0.006	inactive: -0.135	inactive: 0.044	active: -0.501	inactive: -0.133	inactive: -0.123	inactive: -0.035	inactive: -0.109	inactive: 0.021	inactive: -0.012	inactive: 0.016	

Reprinted at random: two records from the list.
Target	log2 fold change [1]	log2 fold change (crizotinib)	log2 fold change [2]	log2 fold change [3]	log2 fold change (gandotinib)	log2 fold change (doramapimod)	log2 fold change [4]	log2 fold change [5]	log2 fold change (tipifarnib)	log2 fold change [6]	log2 fold change (ispinesib)	log2 fold change (bafetinib)	log2 fold change (nilotinib)	log2 fold change [7]	log2 fold change (dasatinib)	log2 fold change [8]	log2 fold change [9]	log2 fold change (mubritinib)	log2 fold change (tozasertib)
TFB2M (UniProt Q9H5Q4)	inactive: -0.013	inactive: -0.06	inactive: 0.096	inactive: 0.025	inactive: -0.19	inactive: -0.024	inactive: 0.008	inactive: 0.012	inactive: -0.132	inactive: 0.033	inactive: -0.044	inactive: -0.046	inactive: -0.043	inactive: -0.024	inactive: -0.099	inactive: 0.009	inactive: -0.004	inactive: -0.039	
TCEAL1 isoform 2 (UniProt Q15170)	inactive: -0.007	inactive: 0.034		inactive: -0.053	inactive: 0.045	inactive: -0.371	inactive: -0.049	inactive: -0.095	inactive: 0.147		inactive: 0.026						inactive: 0.039		inactive: -0.028
